What all share (test): log2 fold change, soluble protein after heating vs DMSO (PISA); higher = thermal stabilisation; K562 lysate, 10 uM; active = over 0.2 and 3.5 SD of the protein, either way, in both replicates (recomputed)
Compound in assay [1]: NCC(=O)Nc1ccc(-n2nc(C(F)(F)F)cc2-c2ccc3c(ccc4ccccc43)c2)cc1
The essentials: (§1)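 Thermal stability, expressed as log-two fold change relative to solvent controls, is given from duplicates. Crude K562 extract in PBS pH 7.4 with 1 mM MgCl2, at 1 mg/mL protein, was treated with 10 μM compound for 30 min and heated in aliquots for 3 min across 48°C-58°C. After pooling, adjustment to 0.5% NP-40 at 4°C and centrifugation at 21,000xg for 90 min, supernatant protein was measured by TMTpro 16plex LC-MS/MS with channel sums equalised.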

Amino acid sequences for entries named in this document (tags omitted). A change or cut given only in a name is not applied to a line headed by its entry.
UniProt Q9NP72: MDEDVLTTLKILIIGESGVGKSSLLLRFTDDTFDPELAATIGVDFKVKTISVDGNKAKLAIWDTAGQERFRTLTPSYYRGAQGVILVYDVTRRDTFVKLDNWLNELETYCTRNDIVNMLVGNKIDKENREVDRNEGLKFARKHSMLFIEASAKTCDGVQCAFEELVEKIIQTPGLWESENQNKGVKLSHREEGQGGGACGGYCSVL
UniProt Q9UI14, whole entry, looked up: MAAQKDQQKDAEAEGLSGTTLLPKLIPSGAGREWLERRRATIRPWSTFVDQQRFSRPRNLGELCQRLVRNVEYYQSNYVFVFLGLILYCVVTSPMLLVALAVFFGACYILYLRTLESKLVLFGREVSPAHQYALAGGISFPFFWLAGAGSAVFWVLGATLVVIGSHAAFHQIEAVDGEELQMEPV
UniProt P53611: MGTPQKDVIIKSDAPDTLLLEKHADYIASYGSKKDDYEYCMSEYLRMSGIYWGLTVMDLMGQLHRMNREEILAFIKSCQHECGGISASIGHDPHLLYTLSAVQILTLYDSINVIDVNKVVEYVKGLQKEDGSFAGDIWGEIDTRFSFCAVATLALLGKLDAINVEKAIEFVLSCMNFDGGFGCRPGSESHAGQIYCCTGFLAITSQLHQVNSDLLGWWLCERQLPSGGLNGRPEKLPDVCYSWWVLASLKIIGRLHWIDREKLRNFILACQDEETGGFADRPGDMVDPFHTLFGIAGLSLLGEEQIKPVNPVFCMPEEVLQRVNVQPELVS
UniProt Q9H0U4: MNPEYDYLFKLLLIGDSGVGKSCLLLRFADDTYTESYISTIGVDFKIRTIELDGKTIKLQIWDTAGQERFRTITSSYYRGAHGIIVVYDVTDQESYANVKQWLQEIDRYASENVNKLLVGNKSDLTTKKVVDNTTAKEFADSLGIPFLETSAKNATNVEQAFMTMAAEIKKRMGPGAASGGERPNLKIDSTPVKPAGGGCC
UniProt Q8TBN0: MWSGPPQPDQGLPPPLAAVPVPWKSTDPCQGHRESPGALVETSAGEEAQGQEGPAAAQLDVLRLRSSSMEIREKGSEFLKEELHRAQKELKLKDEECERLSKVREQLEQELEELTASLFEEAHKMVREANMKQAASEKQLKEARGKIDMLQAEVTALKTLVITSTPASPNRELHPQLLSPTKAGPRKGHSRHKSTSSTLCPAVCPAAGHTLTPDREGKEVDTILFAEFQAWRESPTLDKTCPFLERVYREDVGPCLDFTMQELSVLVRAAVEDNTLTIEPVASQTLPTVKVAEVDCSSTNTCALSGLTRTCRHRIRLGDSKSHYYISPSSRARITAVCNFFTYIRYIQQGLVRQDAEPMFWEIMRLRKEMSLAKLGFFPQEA
UniProt P51159: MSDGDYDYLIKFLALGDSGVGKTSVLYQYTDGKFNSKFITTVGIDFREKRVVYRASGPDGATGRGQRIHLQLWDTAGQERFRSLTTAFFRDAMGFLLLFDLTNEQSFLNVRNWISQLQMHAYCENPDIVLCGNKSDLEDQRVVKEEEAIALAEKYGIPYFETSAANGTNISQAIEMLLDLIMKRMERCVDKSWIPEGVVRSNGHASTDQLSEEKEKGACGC
UniProt Q7Z6M1: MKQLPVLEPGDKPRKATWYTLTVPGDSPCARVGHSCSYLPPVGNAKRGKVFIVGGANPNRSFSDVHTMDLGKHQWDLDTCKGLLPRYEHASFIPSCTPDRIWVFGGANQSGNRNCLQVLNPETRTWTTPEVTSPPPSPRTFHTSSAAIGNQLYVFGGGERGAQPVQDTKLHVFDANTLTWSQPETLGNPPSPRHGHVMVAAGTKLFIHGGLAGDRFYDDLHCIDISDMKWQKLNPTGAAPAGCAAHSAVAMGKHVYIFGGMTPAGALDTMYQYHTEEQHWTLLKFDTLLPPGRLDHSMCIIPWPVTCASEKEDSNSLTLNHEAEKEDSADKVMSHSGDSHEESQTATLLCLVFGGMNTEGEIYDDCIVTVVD
UniProt P49792, whole entry, looked up: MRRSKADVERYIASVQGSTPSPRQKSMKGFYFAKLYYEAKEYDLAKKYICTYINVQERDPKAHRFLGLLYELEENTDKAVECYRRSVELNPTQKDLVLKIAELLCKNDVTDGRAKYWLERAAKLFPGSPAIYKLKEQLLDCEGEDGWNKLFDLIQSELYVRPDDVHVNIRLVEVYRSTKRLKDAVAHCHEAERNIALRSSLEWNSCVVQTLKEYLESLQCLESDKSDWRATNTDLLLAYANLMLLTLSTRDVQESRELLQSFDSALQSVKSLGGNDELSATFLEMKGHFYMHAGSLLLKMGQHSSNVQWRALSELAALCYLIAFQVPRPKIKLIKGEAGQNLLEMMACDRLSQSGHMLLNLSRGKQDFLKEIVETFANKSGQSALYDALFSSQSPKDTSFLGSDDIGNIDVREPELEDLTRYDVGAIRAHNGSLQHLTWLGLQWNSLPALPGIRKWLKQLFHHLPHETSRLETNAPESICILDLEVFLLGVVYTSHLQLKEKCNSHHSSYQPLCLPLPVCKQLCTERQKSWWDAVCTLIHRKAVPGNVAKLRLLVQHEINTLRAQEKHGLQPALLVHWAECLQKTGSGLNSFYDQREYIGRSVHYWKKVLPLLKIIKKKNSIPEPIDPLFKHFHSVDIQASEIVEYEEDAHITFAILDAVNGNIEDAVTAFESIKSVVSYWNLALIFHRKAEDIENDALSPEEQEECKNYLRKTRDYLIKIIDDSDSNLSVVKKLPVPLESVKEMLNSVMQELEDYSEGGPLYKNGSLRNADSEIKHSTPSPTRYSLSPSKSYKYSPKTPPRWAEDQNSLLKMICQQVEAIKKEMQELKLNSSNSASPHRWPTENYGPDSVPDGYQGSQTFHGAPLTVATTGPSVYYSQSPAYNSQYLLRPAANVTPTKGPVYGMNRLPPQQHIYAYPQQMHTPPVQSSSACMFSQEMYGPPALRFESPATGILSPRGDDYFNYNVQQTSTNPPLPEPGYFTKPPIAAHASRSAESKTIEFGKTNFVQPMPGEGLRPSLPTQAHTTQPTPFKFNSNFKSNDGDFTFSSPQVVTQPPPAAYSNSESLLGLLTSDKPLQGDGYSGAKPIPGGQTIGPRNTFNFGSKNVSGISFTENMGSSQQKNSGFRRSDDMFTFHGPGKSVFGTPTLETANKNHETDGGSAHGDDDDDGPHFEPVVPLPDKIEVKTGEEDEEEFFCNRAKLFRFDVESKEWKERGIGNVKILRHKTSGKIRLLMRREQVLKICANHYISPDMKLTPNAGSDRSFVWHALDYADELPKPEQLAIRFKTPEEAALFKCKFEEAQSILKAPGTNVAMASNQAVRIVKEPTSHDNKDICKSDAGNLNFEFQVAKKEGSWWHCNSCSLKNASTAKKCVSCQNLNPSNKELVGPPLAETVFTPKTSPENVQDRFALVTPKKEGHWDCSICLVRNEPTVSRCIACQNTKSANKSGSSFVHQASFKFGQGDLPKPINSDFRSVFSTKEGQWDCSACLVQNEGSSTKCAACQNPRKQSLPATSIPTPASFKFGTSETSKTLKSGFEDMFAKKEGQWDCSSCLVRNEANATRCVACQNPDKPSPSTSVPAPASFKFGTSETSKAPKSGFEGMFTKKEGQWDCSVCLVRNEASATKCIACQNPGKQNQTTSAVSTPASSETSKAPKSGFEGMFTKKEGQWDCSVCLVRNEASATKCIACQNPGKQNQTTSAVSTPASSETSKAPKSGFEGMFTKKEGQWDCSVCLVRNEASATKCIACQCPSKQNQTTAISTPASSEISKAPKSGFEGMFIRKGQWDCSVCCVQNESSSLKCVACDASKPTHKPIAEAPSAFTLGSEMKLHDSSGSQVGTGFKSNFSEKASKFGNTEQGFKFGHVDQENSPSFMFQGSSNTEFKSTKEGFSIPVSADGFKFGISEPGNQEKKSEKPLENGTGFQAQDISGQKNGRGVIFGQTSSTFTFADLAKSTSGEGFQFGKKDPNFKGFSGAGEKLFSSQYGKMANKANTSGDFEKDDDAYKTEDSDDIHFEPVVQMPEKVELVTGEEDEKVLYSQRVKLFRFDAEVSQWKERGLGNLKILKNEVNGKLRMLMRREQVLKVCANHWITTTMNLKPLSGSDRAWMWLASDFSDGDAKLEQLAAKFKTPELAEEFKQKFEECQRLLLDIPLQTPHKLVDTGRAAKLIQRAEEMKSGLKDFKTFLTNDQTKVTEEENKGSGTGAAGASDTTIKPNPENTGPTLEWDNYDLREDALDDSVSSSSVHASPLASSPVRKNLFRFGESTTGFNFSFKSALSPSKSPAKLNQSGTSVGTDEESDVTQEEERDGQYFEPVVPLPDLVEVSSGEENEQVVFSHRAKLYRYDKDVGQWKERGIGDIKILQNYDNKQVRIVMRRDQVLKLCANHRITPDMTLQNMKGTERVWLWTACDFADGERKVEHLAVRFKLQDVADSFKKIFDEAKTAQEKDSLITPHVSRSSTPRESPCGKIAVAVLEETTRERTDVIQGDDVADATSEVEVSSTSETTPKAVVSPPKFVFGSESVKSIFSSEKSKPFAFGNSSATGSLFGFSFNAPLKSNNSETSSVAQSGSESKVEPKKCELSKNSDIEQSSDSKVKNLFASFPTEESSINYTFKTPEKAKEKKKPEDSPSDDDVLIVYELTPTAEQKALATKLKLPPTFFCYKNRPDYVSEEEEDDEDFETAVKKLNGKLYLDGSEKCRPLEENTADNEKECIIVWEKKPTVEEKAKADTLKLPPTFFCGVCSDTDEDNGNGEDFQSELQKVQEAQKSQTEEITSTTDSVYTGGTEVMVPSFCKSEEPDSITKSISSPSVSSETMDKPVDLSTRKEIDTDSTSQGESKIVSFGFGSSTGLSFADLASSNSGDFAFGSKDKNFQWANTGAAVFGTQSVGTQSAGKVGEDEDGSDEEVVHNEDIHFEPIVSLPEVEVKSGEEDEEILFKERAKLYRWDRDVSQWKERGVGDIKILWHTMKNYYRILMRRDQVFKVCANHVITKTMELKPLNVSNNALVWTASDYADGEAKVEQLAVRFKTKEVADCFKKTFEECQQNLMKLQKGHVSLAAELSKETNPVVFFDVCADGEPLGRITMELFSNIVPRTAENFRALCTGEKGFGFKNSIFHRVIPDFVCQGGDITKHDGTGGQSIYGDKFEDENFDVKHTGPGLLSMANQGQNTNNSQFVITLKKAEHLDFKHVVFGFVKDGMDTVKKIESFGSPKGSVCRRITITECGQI
UniProt P47897: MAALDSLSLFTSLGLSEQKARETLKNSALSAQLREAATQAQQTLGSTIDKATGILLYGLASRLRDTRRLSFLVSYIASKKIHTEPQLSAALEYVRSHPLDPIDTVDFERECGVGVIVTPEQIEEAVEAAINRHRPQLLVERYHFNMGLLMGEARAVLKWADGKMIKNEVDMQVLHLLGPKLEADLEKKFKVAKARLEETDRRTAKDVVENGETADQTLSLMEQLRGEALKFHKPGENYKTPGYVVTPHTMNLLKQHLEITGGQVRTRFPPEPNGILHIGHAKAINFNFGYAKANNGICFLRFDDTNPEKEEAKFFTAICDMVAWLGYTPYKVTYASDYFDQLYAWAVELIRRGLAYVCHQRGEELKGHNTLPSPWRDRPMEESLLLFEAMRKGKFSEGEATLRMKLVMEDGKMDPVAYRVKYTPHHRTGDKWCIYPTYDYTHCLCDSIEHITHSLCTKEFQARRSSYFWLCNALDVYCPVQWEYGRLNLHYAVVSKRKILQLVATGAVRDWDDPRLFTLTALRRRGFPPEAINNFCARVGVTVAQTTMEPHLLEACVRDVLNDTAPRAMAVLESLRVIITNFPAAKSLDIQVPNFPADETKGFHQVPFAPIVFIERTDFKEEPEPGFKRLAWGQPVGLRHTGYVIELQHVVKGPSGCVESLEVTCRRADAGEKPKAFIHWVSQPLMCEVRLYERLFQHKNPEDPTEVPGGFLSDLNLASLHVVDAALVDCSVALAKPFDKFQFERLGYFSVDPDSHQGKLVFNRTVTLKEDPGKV
UniProt P51149, whole entry, looked up: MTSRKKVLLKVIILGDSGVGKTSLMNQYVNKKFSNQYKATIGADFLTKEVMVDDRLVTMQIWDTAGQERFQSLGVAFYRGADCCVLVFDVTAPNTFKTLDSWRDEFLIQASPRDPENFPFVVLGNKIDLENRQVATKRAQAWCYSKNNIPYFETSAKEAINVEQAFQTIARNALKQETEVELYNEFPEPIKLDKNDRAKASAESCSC
UniProt Q15907: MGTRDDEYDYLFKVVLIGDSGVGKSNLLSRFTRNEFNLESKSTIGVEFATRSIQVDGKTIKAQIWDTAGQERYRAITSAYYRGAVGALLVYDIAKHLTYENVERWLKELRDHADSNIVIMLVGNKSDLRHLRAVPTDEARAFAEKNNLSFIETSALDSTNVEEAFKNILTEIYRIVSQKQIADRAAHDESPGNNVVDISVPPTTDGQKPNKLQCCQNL
UniProt Q9BRP8: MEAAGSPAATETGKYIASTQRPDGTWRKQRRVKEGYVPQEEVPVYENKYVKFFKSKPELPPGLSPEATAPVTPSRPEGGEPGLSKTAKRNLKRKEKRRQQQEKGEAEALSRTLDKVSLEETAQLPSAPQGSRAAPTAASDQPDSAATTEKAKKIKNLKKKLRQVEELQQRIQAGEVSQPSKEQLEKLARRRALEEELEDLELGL

Compound in the next assay: O=C(CCCCCCC(=O)Nc1ccccc1)NO [vorinostat]
The method, boiled down: as §1

Compound in another assay: O=C(O)c1ccc2c(c1)nc(Nc1cccc(Cl)c1)c1ccncc12 [silmitasertib]
The method, boiled down:
as §1

Compound in assay [2]: O=C1NC(=O)C(c2cnc3ccccn23)=C1c1cn2c3c(cc(F)cc13)CN(C(=O)N1CCCCC1)CC2
The essentials: as §1

Compound in a further assay: c1cn2cc(-c3ccc4cn[nH]c4c3)nc(Nc3ccc(N4CCOCC4)cc3)c2n1 [entospletinib]
The essentials:
as §1

The list shows a part of the results.

As to RAP1GAP isoform 4 (UniProt P47736), the log2 fold change was inactive: -0.058 in assay [1]; active: -0.419 in the assay with vorinostat; inactive: -0.035 with silmitasertib; inactive: 0.022 in assay [2]; inactive: -0.012 with entospletinib.

Consider RAB18 (UniProt Q9NP72), for which the log2 fold change in assay [1] is inactive: 0.015; with vorinostat it was inactive: 0.041; with silmitasertib it was inactive: 0.095; in assay [2] it was inactive: -0.007; in the assay with entospletinib, inactive: -0.177.

Regarding RAP2B (UniProt P61225), the log2 fold change in assay [1] was inactive: -0.013; in the assay with vorinostat, inactive: 0.046; in the assay with silmitasertib it was inactive: 0.083; in assay [2], inactive: 0.005; in the assay with entospletinib it was inactive: -0.06.

Turning to RAB28 (UniProt P51157), the log2 fold change in assay [1] is inactive: -0.078; in the assay with vorinostat it was inactive: -0.154; in the assay with silmitasertib, inactive: 0.061; in assay [2], inactive: -0.06; with entospletinib it was inactive: -0.048.

For the target PYCARD (UniProt Q9ULZ3), the log2 fold change was inactive: 0.011 in assay [1]; inactive: 0.153 with vorinostat; inactive: -0.012 with silmitasertib; inactive: -0.046 in assay [2]; inactive: -0.006 with entospletinib.

With RAC2 (UniProt P15153), the log2 fold change in assay [1] is inactive: -0.073; in the assay with vorinostat it was active: -0.25; in the assay with silmitasertib, inactive: 0.024; in assay [2] it was inactive: 0.102; with entospletinib, inactive: 0.024.

For RABAC1 (UniProt Q9UI14), the log2 fold change in assay [1] was inactive: -0.028; in the assay with vorinostat, inactive: 0.025; with silmitasertib, inactive: 0.042; in assay [2] it was inactive: -0.042; in the assay with entospletinib, inactive: -0.007.

On to RABGGTB (UniProt P53611), for which the log2 fold change in assay [1] was inactive: -0.058; in the assay with vorinostat, active: -0.286; with silmitasertib, inactive: 0.006; in assay [2] it was inactive: -0.005; in the assay with entospletinib, inactive: -0.044.

For the target RAD1 (UniProt O60671), the log2 fold change in assay [1] is inactive: 0.065; with vorinostat, inactive: -0.075; with silmitasertib it was inactive: -0.011; in assay [2], inactive: 0; with entospletinib, inactive: -0.049.

As for RAB14 (UniProt P61106), the log2 fold change was inactive: 0.023 in assay [1]; inactive: 0.093 with vorinostat; inactive: -0.025 with silmitasertib; inactive: 0.042 in assay [2]; inactive: -0.029 with entospletinib.

On to RAB1B (UniProt Q9H0U4), for which the log2 fold change in assay [1] is inactive: 0.025; with vorinostat it was inactive: 0.186; in the assay with silmitasertib, inactive: 0.007; in assay [2], inactive: -0.039; in the assay with entospletinib, inactive: -0.011.

Regarding RAB3IL1 (UniProt Q8TBN0), the log2 fold change in assay [1] is inactive: -0.006; with vorinostat, active: -0.268; with silmitasertib, inactive: 0.025; in assay [2] it was inactive: 0.07; with entospletinib, inactive: 0.015.

Consider RAB27A (UniProt P51159), for which the log2 fold change in assay [1] is inactive: -0.033; with vorinostat, inactive: -0.08; with silmitasertib, inactive: 0.066; in assay [2] it was inactive: -0.009; with entospletinib, inactive: 0.023.

As for RABEPK (UniProt Q7Z6M1), the log2 fold change in assay [1] was inactive: 0.008; with vorinostat it was active: -0.441; with silmitasertib, inactive: 0.032; in assay [2], inactive: 0.014; in the assay with entospletinib, inactive: 0.009.

For the target QPRT (UniProt Q15274), the log2 fold change in assay [1] was inactive: -0.064; with vorinostat, inactive: 0.12; in the assay with silmitasertib, inactive: -0.016; in assay [2], inactive: 0.032; with entospletinib, inactive: 0.001.

Take RANBP2 (UniProt P49792): the log2 fold change was inactive: -0.01 in assay [1]; active: -0.343 with vorinostat; inactive: -0.004 with silmitasertib; inactive: 0.001 in assay [2]; inactive: -0.006 with entospletinib.

As for QARS (UniProt P47897), the log2 fold change in assay [1] is inactive: 0.008; with vorinostat it was inactive: -0.225; with silmitasertib, inactive: 0.021; in assay [2], inactive: 0.029; in the assay with entospletinib, inactive: 0.007.

Consider RAB18 isoform 2 (UniProt Q9NP72), for which the log2 fold change is inactive: -0.013 in assay [1]; inactive: 0.111 with vorinostat; inactive: -0.048 in the assay with silmitasertib; inactive: 0.032 in assay [2]; inactive: -0.013 with entospletinib.

Regarding RAB7A (UniProt P51149), the log2 fold change was inactive: 0.008 in assay [1]; inactive: 0.145 with vorinostat; inactive: 0.012 with silmitasertib; inactive: -0.02 in assay [2]; inactive: -0.009 in the assay with entospletinib.

As to RAB11B (UniProt Q15907), the log2 fold change is inactive: 0.002 in assay [1]; inactive: 0.187 with vorinostat; inactive: -0.003 with silmitasertib; inactive: -0.02 in assay [2]; inactive: -0.033 in the assay with entospletinib.

As for RAP1B (UniProt F5GZG1), the log2 fold change in assay [1] is inactive: -0.051; in the assay with vorinostat, inactive: -0.054; with silmitasertib, inactive: -0.004; in assay [2] it was inactive: -0.099; with entospletinib, inactive: -0.026.

As for RACK1 (UniProt P63244), the log2 fold change in assay [1] is inactive: -0.022; with vorinostat it was inactive: -0.007; in the assay with silmitasertib, inactive: 0.011; in assay [2] it was inactive: -0.011; in the assay with entospletinib, inactive: 0.027.

On to QSOX2 (UniProt Q6ZRP7), for which the log2 fold change is inactive: 0.035 in assay [1]; inactive: 0.131 in the assay with vorinostat; inactive: 0 in the assay with silmitasertib; inactive: -0.001 in assay [2]; inactive: -0.018 in the assay with entospletinib.

As to RAP1B (UniProt P61224), the log2 fold change was inactive: 0.048 in assay [1]; inactive: 0.078 in the assay with vorinostat; inactive: -0.036 with silmitasertib; inactive: -0.024 in assay [2]; inactive: -0.012 in the assay with entospletinib.

For the target RAB40C (UniProt Q96S21), the log2 fold change in assay [1] is inactive: 0.066; with vorinostat, inactive: 0.172; with silmitasertib it was inactive: -0.047; in assay [2], inactive: -0.046; in the assay with entospletinib it was inactive: 0.08.

On to PYM1 (UniProt Q9BRP8), for which the log2 fold change was inactive: 0.05 in assay [1]; inactive: 0.147 with vorinostat; inactive: -0.041 in the assay with silmitasertib; inactive: 0.024 in assay [2]; inactive: -0.015 with entospletinib.

With PXN isoform 3 (UniProt P49023), the log2 fold change was inactive: -0.047 in assay [1]; inactive: 0.001 with vorinostat; inactive: -0.023 with silmitasertib; inactive: 0.018 in assay [2]; inactive: 0.043 in the assay with entospletinib.

For the origin of these results see the supplement of paper PMC10849652.
